Results are given in words; binding and its absence hold for the method and conditions named. In cells and extracts the contact can be indirect. Some binding calls cover weakened binding; strength is not graded here.

Chains of the proteins cited; added tags and fusions are not shown. Residues count along the entry.
UniProt P08069, residues 31-1367: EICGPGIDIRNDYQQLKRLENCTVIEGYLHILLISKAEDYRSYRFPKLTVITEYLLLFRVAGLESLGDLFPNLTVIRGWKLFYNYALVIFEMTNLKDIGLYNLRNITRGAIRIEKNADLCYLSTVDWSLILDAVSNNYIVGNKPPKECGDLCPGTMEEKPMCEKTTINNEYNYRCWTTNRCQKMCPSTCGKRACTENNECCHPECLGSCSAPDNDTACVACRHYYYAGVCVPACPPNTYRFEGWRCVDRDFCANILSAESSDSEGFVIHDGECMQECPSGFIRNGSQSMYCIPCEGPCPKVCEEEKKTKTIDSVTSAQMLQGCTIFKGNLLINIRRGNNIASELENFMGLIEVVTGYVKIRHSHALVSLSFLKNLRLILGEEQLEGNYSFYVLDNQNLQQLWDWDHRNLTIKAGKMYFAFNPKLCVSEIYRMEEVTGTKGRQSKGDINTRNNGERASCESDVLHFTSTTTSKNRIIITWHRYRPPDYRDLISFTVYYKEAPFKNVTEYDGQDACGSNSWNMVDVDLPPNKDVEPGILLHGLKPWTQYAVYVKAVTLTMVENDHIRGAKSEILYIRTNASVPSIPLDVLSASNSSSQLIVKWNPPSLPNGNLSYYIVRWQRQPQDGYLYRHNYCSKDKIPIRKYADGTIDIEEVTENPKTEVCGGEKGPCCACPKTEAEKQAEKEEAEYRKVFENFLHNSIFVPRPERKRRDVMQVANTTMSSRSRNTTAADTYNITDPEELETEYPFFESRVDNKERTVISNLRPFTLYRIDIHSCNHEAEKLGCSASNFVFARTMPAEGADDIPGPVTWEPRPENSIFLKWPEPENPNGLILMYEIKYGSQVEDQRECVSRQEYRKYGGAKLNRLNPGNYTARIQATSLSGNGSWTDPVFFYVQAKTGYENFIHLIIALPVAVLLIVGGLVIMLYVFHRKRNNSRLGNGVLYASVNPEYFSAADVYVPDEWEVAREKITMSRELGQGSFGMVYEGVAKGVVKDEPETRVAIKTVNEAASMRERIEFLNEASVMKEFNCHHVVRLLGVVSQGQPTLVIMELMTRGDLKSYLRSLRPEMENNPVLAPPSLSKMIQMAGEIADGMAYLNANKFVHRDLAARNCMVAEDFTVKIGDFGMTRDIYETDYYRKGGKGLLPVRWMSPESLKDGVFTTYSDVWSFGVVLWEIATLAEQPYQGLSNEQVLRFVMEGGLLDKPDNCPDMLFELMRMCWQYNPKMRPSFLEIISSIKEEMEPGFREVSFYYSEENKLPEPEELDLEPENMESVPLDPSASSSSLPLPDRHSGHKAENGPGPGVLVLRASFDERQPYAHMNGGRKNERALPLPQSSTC
UniProt Q99873: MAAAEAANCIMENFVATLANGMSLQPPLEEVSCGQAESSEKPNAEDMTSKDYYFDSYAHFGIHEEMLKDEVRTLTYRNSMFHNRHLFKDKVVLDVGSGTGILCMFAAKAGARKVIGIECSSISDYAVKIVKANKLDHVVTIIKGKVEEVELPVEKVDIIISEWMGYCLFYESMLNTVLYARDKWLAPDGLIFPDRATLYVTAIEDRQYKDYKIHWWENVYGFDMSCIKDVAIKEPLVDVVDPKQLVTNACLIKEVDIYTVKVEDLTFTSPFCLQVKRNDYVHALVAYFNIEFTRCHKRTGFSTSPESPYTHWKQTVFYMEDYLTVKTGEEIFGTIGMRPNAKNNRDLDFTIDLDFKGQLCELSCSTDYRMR

Experimental findings from paper PMC6755991 are described below.

For assay [1], the target named is insulin-like growth factor 1 receptor (human (endogenous in MCF-7)) (UniProt P08069). Nature of the assay: proximity ligation; fluorescent PLA on methanol-fixed MCF-7 cells with antibodies to the two endogenous proteins; with or without IGF-1; siRNA knock-downs or MS023 as controls.
For assay [2] the target is unchanged. As to the kind of experiment: co-IP; coimmunoprecipitation of IGF-1R and PRMT1 (Supplementary Fig. S2,b); precipitating antibody not shown.

For the substance “arginine methyltransferase PRMT1 (from UniProt Q99873 1-371) (enzyme)”, the binding result in assay [1] and in assay [2] was “binds” each time.
